# Structures can show the parent of a compound that is named as a salt. Among all 1,200 compounds or so, about 50 (4%) showed activity. Rule as the data show it: all actives reach 1.3 or more but so do some inactives. The list shows a part of the results.
# Test system: Lgr5 (MarsCy1-Lgr5-EGFP, U2OS)
# Experiment: cell-surface Lgr5 expression (SCi1 fluorescence, background-subtracted) relative to WT DMSO (fold of DMSO control); higher = more Lgr5 at the plasma membrane, active = hit call of the paper
# Settings: U2OS MarsCy1-Lgr5-EGFP stable; treatment time: overnight; 16 µM; library: Johns Hopkins Clinical Compound Library
row,SMILES,cell-surface Lgr5 expression
1,Clc1ccc(C(Cn2ccnc2)OCc2ccsc2Cl)c(Cl)c1 (stereo unspecified) [Tioconazole],inactive: 0.707
2,"C[C@](N)(Cc1ccc(O)c(O)c1)C(=O)O [Methyl-DOPA (alpha-methyl-L-beta-3,4-dihydroxyphenylalanine)]",inactive: 0.929
3,c1cnc(N2CCN(Cc3ccc4c(c3)OCO4)CC2)nc1 [Piribedil maleate],inactive: 1.06
4,O.O.O=C(O)c1cc(O)c2c(c1)[O][Bi][O]2 [Bismuth III gallate basic hydrate],inactive: 0.96
5,O=C(Cc1cccs1)N[C@@H]1C(=O)N2C(C(=O)O)=C(/C=C/c3ccc([N+](=O)[O-])cc3[N+](=O)[O-])CS[C@H]12 [Nitrocefin],inactive: 0.867
6,IC(I)I [Iodoform],inactive: 1.24
7,NCC(O)CC(=O)O (racemic) [DL-gamma-Amino-beta-hydroxybutyric Acid],inactive: 1.01
8,CC(C)O [Isopropyl alcohol],inactive: 1.24
9,O.O=C([O-])CC(O)(CC(=O)[O-])C(=O)[O-].[K+].[K+].[K+] [Potassium citrate monohydrate],inactive: 0.699
10,"Cc1cc(C(C)(C)C)c(O)c(C(C)(C)C)c1 [Butylated hydroxytoluene (2,6-Di-tert-butyl-4-methylphenol)]",inactive: 1.25
11,COc1ccc(-c2cc(=S)ss2)cc1 [Anethole-trithione (Anetholtrithion)],inactive: 0.965
12,"O=C([O-])O.[Na+] [Sodium bicarbonate, powder]",inactive: 1.08
13,[Fe+3].[Fe+3].[O-2].[O-2].[O-2].[O-2].[Zn+2] [Calamine],inactive: 0.886
14,CCC(=O)[O-].[Na+] [Propionic acid sodium salt],inactive: 0.936
15,CCC(=O)[O-].[Na+] [Sodium propionate],inactive: 0.539
16,CN1CC(=O)N2[C@H](c3ccc4c(c3)OCO4)c3[nH]c4ccccc4c3C[C@@H]2C1=O [Tadalafil],inactive: 0.987
17,CC(C)NCC(O)COc1ccc(CCOCC2CC2)cc1 (stereo unspecified) [Betaxolol],inactive: 1.1
18,CCc1nc(N)nc(N)c1-c1ccc(Cl)cc1 [Pyrimethamine],inactive: 0.998
19,CCN(CC)CCNC(=O)c1cc(Cl)c(N)cc1OC [Metoclopramide hydrochloride],inactive: 0.82
20,CCOc1ccc2ccccc2c1C(=O)N[C@@H]1C(=O)N2[C@@H]1SC(C)(C)[C@@H]2C(=O)O [Nafcillin sodium salt monohydrate],inactive: 0.729
21,CN(C)C/C=C(/c1ccc(Br)cc1)c1cccnc1 [Zimelidine dihydrochloride],inactive: 1.26
22,CC(C)(CO)C(O)C(=O)NCCCO (stereo unspecified) [Panthenol (pantothenol)],inactive: 0.705
23,O=C(O)CCNC(=O)c1ccccc1 [Betamipron (n-benzoyl-b-alanine)],inactive: 1.16
24,CN1CCC[C@@H]1Cc1c[nH]c2ccc(CCS(=O)(=O)c3ccccc3)cc12 [Eletriptan hydrobromide],inactive: 0.952

# Reformatted: results already given.
row	SMILES	cell-surface Lgr5 expression
21	CN(C)C/C=C(/c1ccc(Br)cc1)c1cccnc1 [Zimelidine dihydrochloride]	inactive: 1.26
22	CC(C)(CO)C(O)C(=O)NCCCO (stereo unspecified) [Panthenol (pantothenol)]	inactive: 0.705

# (further entries)

row,SMILES,cell-surface Lgr5 expression
1,NC(N)=NCCC[C@H](N)C(=O)O [L-Arginine L-glutamate salt],inactive: 0.893
2,O=C([O-])C(O)C(O)C(=O)O.[K+] (stereo unspecified) [Potassium bitartrate (Potassium hydrogen tartrate)],inactive: 1
3,O=C1OC2(c3cc(I)c(O)c(I)c3Oc3c2cc(I)c(O)c3I)c2c(Cl)c(Cl)c(Cl)c(Cl)c21 [Rose bengal],inactive: 0.724
4,OCc1cccnc1 [Nicotinyl alcohol (3-Pyridylcarbinol)],inactive: 1.04
5,NS(=O)(=O)c1cc2c(cc1Cl)NC(C(Cl)Cl)NS2(=O)=O (stereo unspecified) [Trichlormethiazide],active: 1.44
6,N[C@@H](C(=O)N[C@@H]1C(=O)N2C(C(=O)O)=C(Cl)CC[C@H]12)c1ccccc1 [Loracarbef],inactive: 0.67
7,CN(CCO)CC(O)Cn1cnc2c1c(=O)n(C)c(=O)n2C (stereo unspecified) [Xanthinol niacinate (Xanthinol Nicotinate)],inactive: 1.05
8,CCN(CC)CCOC(=O)c1ccc(N)cc1Cl [Chloroprocaine],inactive: 0.953
9,CC12CCC(CC1=O)C2(C)C (stereo unspecified) [Camphor],inactive: 1.14
10,Cc1c(-c2ccccc2)oc2c(C(=O)OCCN3CCCCC3)cccc2c1=O [Flavoxate hydrochloride],inactive: 0.864
11,NCCCC(=O)O [GABA (gamma-Amino-n-Butyric Acid)],inactive: 1.21
12,NCCCC(=O)O [4-Aminobutyric acid (GABA)],inactive: 1.24
13,CCCCCCCCCCCCCCCCCCCCCCO [Docosanol (Behenyl alcohol)],inactive: 1.07
14,Cc1cccc(C)c1NC(=O)C(C)N (stereo unspecified) [Tocainide hydrochloride],inactive: 1.07
15,CO/N=C(\C(=O)N[C@@H]1C(=O)N2C(C(=O)O)=C(CSc3nnnn3C)CS[C@H]12)c1csc(N)n1 [Cefmenoxime hydrochloride],inactive: 0.944
16,"Nc1nc2[nH]cnc2c(=S)[nH]1 [Thioguanine (2-amino,6-mercaptopurine)]",inactive: 0.849
17,O=C(OCC(O)CO)c1ccccc1Nc1ccnc2cc(Cl)ccc12 (stereo unspecified) [Glafenine],active: 1.63
18,COc1ccccc1OCC(O)CO (stereo unspecified) [Guaifenesen (Guaiacol glyceryl ether)],inactive: 1.11
19,COc1ccccc1OCC(O)CO (stereo unspecified) [Guaifenesin],inactive: 1.27
20,Cc1cc(=O)[nH]c(=S)[nH]1 [Methylthiouracil (6-Methyl-2-thiouracil)],inactive: 1.25
21,CN1[C@@H]2CC[C@H]1C[C@@H](OC(=O)c1c[nH]c3ccccc13)C2 [Tropisetron HCl],inactive: 1.17
22,CCOC(=O)C1=C(COCCN)NC(C)=C(C(=O)OC)C1c1ccccc1Cl (stereo unspecified) [Amlodipine besylate],inactive: 1.05
23,Cc1c(N(C)C)c(=O)n(-c2ccccc2)n1C [Aminopyrine (4-Dimethylamino-antipyrine)],inactive: 1.14
24,Cc1c(N(C)C)c(=O)n(-c2ccccc2)n1C [Aminopyrine (4 Dimethylamino antipyrene)],inactive: 0.932

# Reprinted at random: 2 entries already listed
row,SMILES,cell-surface Lgr5 expression
18,COc1ccccc1OCC(O)CO (stereo unspecified) [Guaifenesen (Guaiacol glyceryl ether)],inactive: 1.11
12,NCCCC(=O)O [4-Aminobutyric acid (GABA)],inactive: 1.24

# More records.

row,SMILES,cell-surface Lgr5 expression
1,NC(CCC(=O)O)C(=O)O (racemic) [DL-Glutamic acid monohydrate],inactive: 0.692
2,CC(=O)NS(=O)(=O)c1ccc(NC(=O)c2ccccc2C(=O)O)cc1 [Phthalylsulfacetamide],inactive: 0.905
3,O=C(c1ccccc1)C(O)c1ccccc1 (stereo unspecified) [Benzoin],inactive: 1.11
4,CC(S)C(=O)NCC(=O)O (stereo unspecified) [Tiopronin (n-2-mercaptopropionyl glycine)],inactive: 1.01
5,CNC[C@H](O)c1ccc(O)c(O)c1 [Epinephrine],inactive: 1.57
6,CN(C(=O)C(Cl)Cl)c1ccc(OC(=O)c2ccco2)cc1 [Diloxanide furoate],inactive: 1.05
7,CN(C)CCOC(C)(c1ccccc1)c1ccccn1 (stereo unspecified) [Doxylamine Succinate salt],inactive: 1.18
8,C=CCNC(N)=S [Allylthiourea (1-Allyl-2-thiourea)],inactive: 1.12
9,C#C[C@]1(O)CC[C@H]2[C@@H]3CCc4cc(O)ccc4[C@H]3CC[C@@]21C.C[C@]12CCC(=O)C=C1[C@@H]1C[C@@H]1[C@H]1[C@@H]3[C@@H]4C[C@@H]4[C@@]4(CCC(=O)O4)[C@@]3(C)CC[C@@H]12 [Drospirenone and ethinyl estradiol],inactive: 0.912
10,CC(=O)c1ccc2c(c1)N(CCCN(C)C)c1ccccc1S2 [Acepromazine],inactive: 0.967
11,Oc1c(I)cc(Cl)c2cccnc12 [Clioquinol],inactive: 1.18
12,CC(C)(C#N)c1cc(Cn2cncn2)cc(C(C)(C)C#N)c1 [Anastrozole],inactive: 1.19
13,O=C(C1CCCCC1)N1CC(=O)N2CCc3ccccc3C2C1 (stereo unspecified) [Praziquantel],inactive: 1.17
14,CO[C@H]1/C=C/O[C@@]2(C)Oc3c(C)c(O)c4c(O)c(cc(O)c4c3C2=O)NC(=O)/C(C)=C\C=C\[C@H](C)[C@H](O)[C@@H](C)[C@@H](O)[C@@H](C)[C@H](OC(C)=O)[C@@H]1C [Rifamycin sv],inactive: 0.785
15,CN1CCC(=C2c3ccccc3CCc3cccnc32)CC1 [Azatadine maleate],inactive: 1.19
16,Nc1nc2ccc(OC(F)(F)F)cc2s1 [Riluzole],inactive: 0.449
17,Oc1cc(O)c2c(c1)O[C@H](c1ccc(O)c(O)c1)[C@H](O)C2 [Epicatechin (-)-],inactive: 1.07
18,[Mg+2].[OH-].[OH-] [Magnesium hydroxide],inactive: 1.25
19,CC(C)(C)NCC(O)COc1cccc2c1CCC(=O)N2 (stereo unspecified) [Carteolol hydrochloride],inactive: 1.08
20,O.O.O.O.O.O.[Al+3].[Cl-].[Cl-].[Cl-] [Aluminum chloride hexahydrate],inactive: 0.814
21,O=C(OCc1ccccc1)c1ccccc1O [Benzyl salicylate],inactive: 1.12
22,O=C(O)c1cc(/N=N/c2ccc(O)c(C(=O)O)c2)ccc1O [Olsalazine],inactive: 0.807
23,CC(=O)O[C@]1(C(C)=O)CC[C@H]2[C@@H]3C[C@H](C)C4=CC(=O)C=C[C@]4(C)[C@@]3(F)[C@@H](O)C[C@@]21C [Fluorometholone acetate],active: 1.31
